Taken from: PubChem BioAssay AID602196 (INSERM, 2012)
The deposit covers about 23,000 reagents; below is a part drawn at random. 455 of them (2%) count as active. 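Active includes both protection and sensitisation; some change values fall well beyond the stated -50 to +50 range.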 Further read-outs or replicates are left out here. Not stated in the record: the amount of reagent.

Screen: 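Modifiers of cisplatin sensitivity in A549 cells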
Cells: human A549 lung cancer cells
Reagents: siRNA pair against human genes
Duration: 48 h transfection before cisplatin; time from cisplatin to read-out not stated
Treatment: cisplatin at a dose killing half of control-siRNA cells; exact dose and duration not given
Measured: 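Cisplatin cell death as a shift from the 50% death seen with control siRNA; siRNAs toxic or growth-blocking alone scored 0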
Reading the numbers: two-siRNA summed score (-2 to +2): higher = both siRNAs protect from cisplatin killing; -2 means both sensitise; mean protection from cisplatin (shift in death) and protection from cisplatin (shift in death), siRNA C: higher = protection from cisplatin killing
Rule for the call: 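siRNAs harmful alone (LDH or WST-1) get 0; others get +1 for less and -1 for more cisplatin killing; genes are active when the two siRNAs give the same sign, summing to ±2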
Meaning of the calls: active = both siRNAs shift cisplatin killing the same way; inactive = no consistent shift, or siRNA harmful alone

gene,PubChem SID,two-siRNA summed score (-2 to +2),mean protection from cisplatin (shift in death) (%),"protection from cisplatin (shift in death), siRNA C (%)",outcome
BBS4,SID131515866,0,9.8,5.7,inactive
LOC441591,SID131518314,0,18.3,22.9,inactive
CTSD,SID131522418,1,18.4,13.6,inactive
SLF1,SID131503193,0,-12.3,-16.7,inactive
VIP,SID131503187,0,-12.3,-21.4,inactive
LOC399951,SID131506018,0,-2.2,-1,inactive
ECHDC3,SID131514812,0,8.3,11,inactive
GTF3C2,SID131503686,0,-8.4,-10.1,inactive
GSDMD,SID131515642,0,9.5,15.8,inactive
SYT4,SID131522366,1,18,27.9,inactive
DEDD2,SID131511961,0,5,17.6,inactive
ANKMY2,SID131511404,0,4.3,5.7,inactive
CABIN1,SID131503110,0,-13.5,-7.4,inactive
LOC441769,SID131519993,1,8.3,11,inactive
BRPF3,SID131500304,-2,-29.3,-30.8,active
ABI3,SID131504345,0,-5.7,-3.9,inactive
ZNF518A,SID131520051,1,8.5,5.7,inactive
MGME1,SID131504022,0,-6.8,-9.7,inactive
HDGF,SID131519337,1,4.8,-0.2,inactive
TCEAL3,SID131514928,0,8.4,10.1,inactive
PTH2,SID131508053,0,0.6,2.9,inactive
LOC440943,SID131523090,2,19.4,17.2,active
LOC388515,SID131520231,1,9.1,2.1,inactive
BCAS3,SID131519896,1,7.9,-7.7,inactive
DUSP1,SID131508051,0,0.6,9.7,inactive
PSTPIP2,SID131506829,0,-0.9,-3.1,inactive
C14orf93,SID131510406,0,3.2,13.9,inactive
LOC441510,SID131507310,0,-0.3,7.4,inactive
PRG2,SID131502625,-1,0.2,21.5,inactive
LOC440892,SID131513040,0,6.1,8.9,inactive
NDRG1,SID131507797,0,0.3,-11,inactive
IFIH1,SID131513763,0,7,7.7,inactive
GABRG3,SID131520997,1,11.8,19.3,inactive
LOC346950,SID131501786,-1,-7.4,1.3,inactive
CMA1,SID131504735,0,-4.6,-4.2,inactive
LOC390110,SID131502727,-1,4.1,18.7,inactive
LOC401581,SID131522946,2,13.6,11.2,active
ATP13A4,SID131511669,0,4.6,11.3,inactive
HMGB3,SID131508894,0,1.6,8.1,inactive
PLEKHA8P1,SID131513867,0,7.1,10,inactive
DLL1,SID131515192,0,8.8,10.6,inactive
EMP2,SID131521283,1,12.9,8.5,inactive
FAM230B,SID131506831,0,-0.9,-4.2,inactive
LOC342096,SID131516467,0,10.9,2.5,inactive
LOC220717,SID131518656,0,23.5,37.1,inactive
MAP3K8,SID131519698,1,7.1,1.8,inactive
ATP6V0C,SID131510519,0,3.3,10.1,inactive
LOC440310,SID131521424,1,13.4,13.6,inactive
ATF7,SID131502560,-1,-0.9,-8,inactive
SUB1,SID131504792,0,-4.5,-2.2,inactive
MS4A13,SID131511926,0,4.9,0.2,inactive
WWTR1,SID131514804,0,8.3,10.9,inactive
OXTR,SID131521855,1,15.2,24.3,inactive
KIAA2012,SID131510577,0,3.4,13.4,inactive
TMCC1,SID131505930,0,-2.3,-0.8,inactive
TMCC1,SID131517964,0,15.6,9.6,inactive
FAM135B,SID131519549,1,6.2,22.4,inactive
HAUS4,SID131512049,0,5.1,9.8,inactive
C20orf144,SID131505845,0,-2.5,-13.5,inactive
LOC441072,SID131510639,0,3.5,2.1,inactive
CDC6,SID131523107,2,20.1,20.8,active
GLIS2,SID131506059,0,-2.1,-0.7,inactive
TSPAN2,SID131511483,0,4.4,6.7,inactive
GCNT4,SID131505471,0,-3.1,-2.1,inactive
GRIPAP1,SID131500536,-1,-22.6,-25.3,inactive
EGR4,SID131504082,0,-6.6,-8.8,inactive
JMJD1C,SID131505406,0,-3.2,-7.1,inactive
LOC441787,SID131519823,1,7.6,10.9,inactive
LEAP2,SID131509267,0,2,-0.4,inactive
ARPC3,SID131520478,1,10,0.9,inactive
FAM78A,SID131522010,1,15.8,19.4,inactive
TLR10,SID131514859,0,8.3,7.6,inactive
GBA1,SID131508545,0,1.2,-17,inactive

Entries above called active (4):
gene,PubChem SID,two-siRNA summed score (-2 to +2),mean protection from cisplatin (shift in death) (%),"protection from cisplatin (shift in death), siRNA C (%)",outcome
BRPF3,SID131500304,-2,-29.3,-30.8,active
LOC440943,SID131523090,2,19.4,17.2,active
LOC401581,SID131522946,2,13.6,11.2,active
CDC6,SID131523107,2,20.1,20.8,active
